Values quoted from earlier work, collected in patent publication US20040115708A1, “Method of screening agents for the treatment and prevention of cancer and cachexia and the new use of specific agents for the treatment and prevention of cancer and cachexia” (priority 2002, published 2004).
Some of these results come from one statement about several compounds together.

Test system: cultured keratinocytes

For `CNc1ccc2oc(C[C@H]3O[C@@]4(CC[C@H]3C)O[C@H]([C@H](C)C(=O)c3ccc[nH]3)[C@H](C)C[C@H]4C)nc2c1C(=O)O` [A23817], the “duration of oxidized state after transient increase in cytosolic calcium and H2O2” value is listed as “no more than 20 minutes”.
